Assay results taken from patent publication US10828368B2, “Therapeutic treatments using centhaquin” (MIDWESTERN UNIVERSITY, priority 2009, dated 2020).

Test system: ET-1
Experiment: ET-1 level in rat plasma (enzyme immunometric assay)
Assay type: in vivo
Conditions: for change in plasma ET-1 levels: clonidine or centhaquin treatment

## Cc1cccc(N2CCN(CCc3ccc4ccccc4n3)CC2)c1 [Centhaquin]
1 hour after centhaquin 0.15 mg/kg
  plasma ET-1 level: 10.39 ± 1.75 pg/mL
After centhaquin 0.45 mg/kg
  plasma ET-1 level: 11.67 ± 1.41 pg/mL
  change in plasma ET-1 levels: Neither plasma ET-1 levels were altered
Listed as centhaquin
  change in plasma ET-1 levels: did not produce any change

## Clc1cccc(Cl)c1NC1=NCCN1 [Clonidine, N-(2,6-dichlorophenyl)-4,5-dihydro-1H-imidazol-2-amine]
1 hour after clonidine 10 μg/kg
  plasma ET-1 level: 13.45 ± 0.68 pg/mL
After clonidine 90 μg/kg
  plasma ET-1 level: 11.31 ± 0.92 pg/mL
  change in plasma ET-1 levels: did not produce any change
